PubChem BioAssay AID1259308 – NCATS – 2017
In all, the deposit lists about 59,000 reagents; below is a random part of them. Of all reagents, about 1,510 (2.6%) got an active call. 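Calls use total luciferase alone and ignore viability, so some active siRNAs may act by altering cell number.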 Reagents against one gene are numbered here. Not all columns of the deposit are shown.

Test: 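Knock-downs that increase output of a recombinant reporter protein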 (primary screen)
System: human HEK293 embryonic kidney cells stably expressing firefly luciferase (HEK-CMV-Luc2-Hygro)
Reagents: single siRNA against human genes, 0.8 pmol siRNA per well
Time to read-out: 72 h
Detection: 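Reporter luminescence and viable-cell signal on separate replicate plates, given as percent of non-targeting control and median/MAD z-scores, plus per-cell luciferase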
Scale: total luciferase, z-score: higher = more reporter protein produced
Hit rule: 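Active when the median/MAD z-score for overall luciferase is greater than 3; a gene was taken forward for validation with new siRNAs if at least two of its three siRNAs passed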
Meaning of the calls: active = raised luciferase; inactive = no rise

Against CDC50B #1, the values are total luciferase, z-score 0.00423; inactive. After knock-down of CDC50B #2, the screen gave total luciferase, z-score -0.0446; inactive. CDC50B #3 gave total luciferase, z-score 0.843; inactive. With knock-down of MAP1LC3B #1, the record shows total luciferase, z-score -0.575; inactive. For MAP1LC3B #2, the entry reads total luciferase, z-score -0.505; inactive. Depletion of MAP1LC3B #3 gave: total luciferase, z-score -0.513; inactive.

LELP1 #1 scored total luciferase, z-score 0.00457; inactive. For LELP1 #2, the values are total luciferase, z-score 0.596; inactive. After knock-down of LELP1 #3, the screen gave total luciferase, z-score 0.385; inactive. Knock-down of MRPL34 #1 resulted in: total luciferase, z-score -0.689; inactive. MRPL34 #2 gave total luciferase, z-score -0.319; inactive. With knock-down of MRPL34 #3 the results were total luciferase, z-score 1.05; inactive.

Depletion of HELZ #1 gave: total luciferase, z-score 0.482; inactive. With knock-down of HELZ #2, the screen gave total luciferase, z-score -0.529; inactive. Against HELZ #3, the values are total luciferase, z-score -0.0156; inactive. LGMN #1 showed total luciferase, z-score -0.681; inactive. With knock-down of LGMN #2 the results were total luciferase, z-score 2.2; inactive. Depletion of LGMN #3 resulted in: total luciferase, z-score -0.139; inactive.

After knock-down of LHCGR #1, the record shows total luciferase, z-score -1.32; inactive. With knock-down of LHCGR #2, the screen gave total luciferase, z-score -0.901; inactive. For LHCGR #3, the values are total luciferase, z-score -1.04; inactive. Depletion of FAM24A #1 gave: total luciferase, z-score 3.68; active. Against FAM24A #2, the entry reads total luciferase, z-score 1.55; inactive. After knock-down of FAM24A #3, the screen gave total luciferase, z-score -0.123; inactive.

NDUFB8 #1 gave total luciferase, z-score 0.55; inactive. For NDUFB8 #2, the entry reads total luciferase, z-score -0.29; inactive. After knock-down of NDUFB8 #3, the record shows total luciferase, z-score -1.68; inactive. After knock-down of TAF15 #1 the results were total luciferase, z-score 0.727; inactive. After knock-down of TAF15 #2, the screen gave total luciferase, z-score 0.238; inactive. Knock-down of TAF15 #3 came out at: total luciferase, z-score -0.0119; inactive.

Against IL13 #1, the entry reads total luciferase, z-score -1.07; inactive. Knock-down of IL13 #2 resulted in: total luciferase, z-score -0.449; inactive. Silencing of IL13 #3 gave: total luciferase, z-score 2.11; inactive. Silencing of PEX10 #1 gave: total luciferase, z-score -1.13; inactive. PEX10 #2 showed total luciferase, z-score -0.432; inactive. After knock-down of PEX10 #3 the results were total luciferase, z-score 0.0368; inactive.

Knock-down of HMGN3 #1 gave: total luciferase, z-score 0.186; inactive. For HMGN3 #2, the entry reads total luciferase, z-score -1.2; inactive. For HMGN3 #3, the values are total luciferase, z-score 0.183; inactive. Depletion of TSFM #1 came out at: total luciferase, z-score 0.867; inactive. For TSFM #2 the deposit lists total luciferase, z-score 0.5; inactive. Silencing of TSFM #3 resulted in: total luciferase, z-score -0.611; inactive.

Records listed above marked active, once more:
FAM24A #1 → total luciferase, z-score = 3.68; Outcome = active
